Test [1] concerns the target TrkB (endogenous, rat hippocampus) (rat (endogenous in hippocampus)) (UniProt Q63604). Put plainly: co-IP; endogenous proteins from rat hippocampal extract (150 mM NaCl, 50 mM TRIS, 0.5% DOC, 1% Triton X-100); goat anti-TrkB or rabbit anti-SIPA1L2 overnight at 4 °C, Protein G Dynabeads; IgG controls.
The target of another test is T1, GFP-Snapin (UniProt P60192).
T1 sequence: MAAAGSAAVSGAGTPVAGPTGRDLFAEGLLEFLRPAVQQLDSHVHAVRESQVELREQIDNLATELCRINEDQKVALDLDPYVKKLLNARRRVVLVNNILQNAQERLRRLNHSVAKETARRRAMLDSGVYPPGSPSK
Nature of the test: co-IP; heterologous, HEK293T lysate in RIPA buffer (50 mM Tris-HCl pH 7.4, 150 mM NaCl, 1% Triton X-100, 0.5% sodium deoxycholate, 0.1% SDS); anti-GFP/myc magnetic beads (MultiMACS).

Sequences of proteins named here, by UniProt entry; tags and fusion partners are left off. A change or cut given only in a name is not applied to a line headed by its entry. Residues count along the entry.
UniProt Q63604, residues 32-821: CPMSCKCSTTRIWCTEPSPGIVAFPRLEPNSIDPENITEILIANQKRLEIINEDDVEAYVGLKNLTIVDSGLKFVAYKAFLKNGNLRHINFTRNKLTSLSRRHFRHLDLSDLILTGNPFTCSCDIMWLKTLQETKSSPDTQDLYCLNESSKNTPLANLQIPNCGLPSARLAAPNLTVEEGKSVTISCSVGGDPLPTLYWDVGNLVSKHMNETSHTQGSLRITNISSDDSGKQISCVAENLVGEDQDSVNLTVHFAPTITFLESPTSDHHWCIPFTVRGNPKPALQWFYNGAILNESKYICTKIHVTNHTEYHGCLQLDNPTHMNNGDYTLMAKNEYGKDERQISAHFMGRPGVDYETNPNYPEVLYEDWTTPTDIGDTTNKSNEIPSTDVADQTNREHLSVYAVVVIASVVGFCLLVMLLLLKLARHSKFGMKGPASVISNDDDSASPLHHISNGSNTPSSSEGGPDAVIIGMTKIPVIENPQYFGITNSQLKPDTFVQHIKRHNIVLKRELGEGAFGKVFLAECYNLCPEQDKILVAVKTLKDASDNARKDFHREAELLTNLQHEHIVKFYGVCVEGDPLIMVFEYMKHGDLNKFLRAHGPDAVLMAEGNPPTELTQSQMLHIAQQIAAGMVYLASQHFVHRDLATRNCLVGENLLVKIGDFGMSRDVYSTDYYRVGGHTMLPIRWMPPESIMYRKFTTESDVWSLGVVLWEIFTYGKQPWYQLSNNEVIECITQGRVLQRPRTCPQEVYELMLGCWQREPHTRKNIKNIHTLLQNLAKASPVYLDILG
UniProt Q5JCS6: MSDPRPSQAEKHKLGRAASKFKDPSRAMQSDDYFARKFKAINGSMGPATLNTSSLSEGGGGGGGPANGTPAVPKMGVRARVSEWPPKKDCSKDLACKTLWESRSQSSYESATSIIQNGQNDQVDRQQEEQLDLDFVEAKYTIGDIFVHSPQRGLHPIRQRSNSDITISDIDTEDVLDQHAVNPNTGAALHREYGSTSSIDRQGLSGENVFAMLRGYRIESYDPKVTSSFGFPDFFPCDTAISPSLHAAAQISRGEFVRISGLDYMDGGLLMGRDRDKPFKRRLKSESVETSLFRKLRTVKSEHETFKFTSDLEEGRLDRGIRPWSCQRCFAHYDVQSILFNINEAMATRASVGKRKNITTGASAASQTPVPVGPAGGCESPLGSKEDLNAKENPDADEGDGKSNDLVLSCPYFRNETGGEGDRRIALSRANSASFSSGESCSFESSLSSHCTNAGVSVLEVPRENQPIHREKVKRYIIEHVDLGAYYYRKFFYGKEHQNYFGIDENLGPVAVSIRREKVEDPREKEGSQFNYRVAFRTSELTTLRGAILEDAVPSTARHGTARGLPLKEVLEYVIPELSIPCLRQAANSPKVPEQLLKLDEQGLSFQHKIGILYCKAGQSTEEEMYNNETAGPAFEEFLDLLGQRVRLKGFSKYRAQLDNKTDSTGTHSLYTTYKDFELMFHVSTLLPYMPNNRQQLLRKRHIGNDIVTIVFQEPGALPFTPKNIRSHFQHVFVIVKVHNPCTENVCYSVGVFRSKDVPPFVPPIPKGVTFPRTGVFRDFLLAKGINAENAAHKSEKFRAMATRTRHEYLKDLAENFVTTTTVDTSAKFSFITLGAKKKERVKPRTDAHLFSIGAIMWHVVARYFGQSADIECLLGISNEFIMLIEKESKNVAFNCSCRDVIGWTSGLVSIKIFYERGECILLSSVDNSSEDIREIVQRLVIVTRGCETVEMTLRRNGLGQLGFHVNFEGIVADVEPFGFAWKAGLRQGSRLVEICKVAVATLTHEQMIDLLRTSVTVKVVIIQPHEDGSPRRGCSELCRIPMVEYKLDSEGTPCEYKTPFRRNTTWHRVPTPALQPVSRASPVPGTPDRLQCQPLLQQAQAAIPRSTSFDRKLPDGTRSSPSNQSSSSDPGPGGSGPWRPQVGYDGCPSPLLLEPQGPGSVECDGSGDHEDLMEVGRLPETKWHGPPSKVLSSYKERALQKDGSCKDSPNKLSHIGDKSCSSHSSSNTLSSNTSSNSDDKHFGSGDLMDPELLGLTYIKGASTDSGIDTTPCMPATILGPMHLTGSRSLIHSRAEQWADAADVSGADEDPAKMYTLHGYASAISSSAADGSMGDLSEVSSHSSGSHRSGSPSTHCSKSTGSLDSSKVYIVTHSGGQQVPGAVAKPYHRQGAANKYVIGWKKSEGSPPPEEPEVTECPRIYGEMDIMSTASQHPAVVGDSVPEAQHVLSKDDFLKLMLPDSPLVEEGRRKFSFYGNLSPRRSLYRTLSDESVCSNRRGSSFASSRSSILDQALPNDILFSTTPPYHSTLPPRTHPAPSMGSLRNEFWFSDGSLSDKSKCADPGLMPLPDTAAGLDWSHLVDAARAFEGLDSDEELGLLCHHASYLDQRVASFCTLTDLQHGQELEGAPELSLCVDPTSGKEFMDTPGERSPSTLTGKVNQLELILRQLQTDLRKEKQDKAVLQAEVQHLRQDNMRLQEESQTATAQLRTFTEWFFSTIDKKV

No constants are given. Whether binding was seen depends on the method and setting. Binding seen in cells or lysates may run through a third protein. Some binding calls cover weakened binding; strength is not graded here. For part of these data: Where a sequence is shown, tags or fusion partners need not be part of it.

With “SIPA1L2 (endogenous, rat hippocampus) (from UniProt Q5JCS6 1-1722)”, the binding entry in test [1] was “binds”.

As for “SIPA1L2-F638A-L641A-mCherry (from UniProt Q5JCS6 1-1722)”, the binding entry with GFP-Snapin is “binds”.

As to “fl-SIPA1L2-mCherry (from UniProt Q5JCS6 1-1722)”, the binding entry with GFP-Snapin is reported as “binds”.

(Values after PMC6884526.)
